PubChem BioAssay AID504594 (Broad Institute, 2011)
Several values for one entry are separate records, joined by “and”; a condition that tells them apart may be missing. Equal values may be shown once. Among all 2,000 compounds or so, fewer than 10 were called active.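 Rule for the calls: active = growth inhibition of at least 75% in every replicate, which also brings the mean inhibition to 75% or more; inconclusive = mean inhibition 75% or more but some replicate under 75%; inactive = the rest.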 Some of the results follow.

Experiment: reduced viability of yeast carrying PfHsp90 – S. cerevisiae, BacTiter-Glo luminescence, antimalarial PfHsp90 inhibitor project, primary screen (AID 504594);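 note: 0% = DMSO neutral control wells and 100% = 20 µM radicicol control wells; higher value means stronger growth inhibition because the sign is flipped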
Settings: S. cerevisiae expressing PfHsp90, BacTiter-Glo growth, 48 h; at 9.4 µM; stronger effect = higher value

| SMILES | growth inhibition |
| --- | --- |
| CC(CCCC(C)(C)O)NC(=O)c1ccc(OC2CCN(C(=O)C3CC3)CC2)cc1 (configuration not stated) | inactive: 8.46% |
| COc1cc2c(cc1OC)C(c1ccc(-c3cc(Cl)ccc3Cl)o1)=NCC2 | inactive: 1.54% |
| CC(C)OC(=O)C1C2C=CC3(CN(CC4CCCO4)C(=O)C13)O2 (configuration not stated) | inactive: 8.41% |
| CC(C)COCC(CN(Cc1ccccc1)c1ccccc1)N1CCCC1 (configuration not stated) | inactive: -7.22% |
| Oc1ccc(Cl)cc1Cc1cc(Cl)ccc1O | inactive: 46% |
| COc1ccc(OC(C)C(=O)Nc2ccccc2F)cc1 (configuration not stated) | inactive: -8.14% |
| COc1ccc(/C=C/C(=O)NC(=S)NN2CCCCC2c2cccnc2)cc1 (configuration not stated) | inactive: -8.16% |
| O=C(Nc1nc2ccccc2s1)c1ccc(F)cc1 | inactive: -16.1% |
| CCn1c2ccccc2c2cc(CC(N)=O)ccc21 | inactive: -13.3% |
| CCn1c(/C=C/c2ccccc2)nc2ccccc2c1=O | inactive: -5.35% |
| N#C/C(C(N)=O)=c1/ccc2c(c1)N1C3=C(CCCC3)CC3CCCCC31N=2 (configuration not stated) | inactive: 38.1% |
| CCOc1ccc2ccccc2c1CNc1nnnn1C | inactive: -6.35% |
| Cc1ccc2ncnc(NCCCCCC(=O)O)c2c1 | inactive: 4.2% |
| Cc1ccsc1C1NC(=O)c2ccccc2N1 (configuration not stated) | inactive: -12.4% |
| COc1ccc(OC(C)C(=O)Nc2ccc([N+](=O)[O-])cc2)cc1 (configuration not stated) | inactive: -4.37% |
| COc1ccc2oc(=O)c(C(=O)N3CCN(c4ccccc4)CC3)cc2c1 | inactive: -2.77% |
| O=C(NCCCCCc1nc2ccccc2[nH]1)c1ccccc1Cl | inactive: -7.37% |
| O=C(Nc1cccc(-c2nc3ncccc3o2)c1)c1ccccc1 | inactive: -4.33% |
| CCCCOC(=O)c1ccc(N)cc1 | inactive: -3.5% |
| O=C(CS(=O)(=O)Cc1ccccc1)NCc1ccc2c(c1)OCO2 | inactive: 15.7% |
| Cc1ccc(-n2ncc3c(Nc4cccc(C(=O)O)c4)ncnc32)cc1 | inactive: -0.664% |
| NCCOc1ccccc1OCCN | inactive: -14.9% |
| Cc1ccc2[nH]c3c(c2c1)CN(C(=O)CN1CCSCC1)CC3 | inactive: -8.61% |
| COc1cc(OC)cc(C(C)=O)c1 | inactive: -6.96% |
| COCCn1c(SCCOc2ccccc2)nc2ccccc2c1=O | inactive: 3.69% |

| SMILES | growth inhibition |
| --- | --- |
| CC[N+]1(C)CC2CCC(C)(C1)C2(C)C (configuration not stated) | inactive: 1.9% |
| CC(C)(C)OC(=O)N1CCCC1C(=O)NC(Cc1ccccc1)C(=O)O (configuration not stated) | inactive: -19.4% |
| CC(CCc1ccccc1)NC(=O)/C=C/c1ccccc1 (configuration not stated) | inactive: -11.1% |
| COc1cc(Cc2cnc(N)nc2N)cc(OC)c1OC | inactive: 13.7% and inactive: -12.9% |
| CC(C)OC(=O)C1C(=O)CC(C)(O)C(C(=O)OC(C)C)C1c1cccc(O)c1 (configuration not stated) | inactive: -3.65% |
| COc1ccc(CCN2CNc3c(c(=O)n(C)c(=O)n3C)C2)cc1OC | inactive: 5.39% |
| COc1ccc(CN(CCC(c2ccccc2)c2ccc(OC(C)C)cc2)C(=O)CCl)cc1OC (configuration not stated) | inactive: -2.59% |
| O=C(O)CCSCCC(=O)O | inactive: -0.633% |
| CO[C@@]1(NC(=O)Cc2cccs2)C(=O)N2C(C(=O)O)=C(COC(N)=O)CS[C@@H]21 | inactive: 0.427% |
| O=C(c1cc2cc(Br)ccc2o1)N1CCCCC1 | inactive: 5.37% |
| O=C(c1ccco1)N(CCC(c1ccccc1)c1ccco1)Cc1ccco1 (configuration not stated) | inactive: -4.9% |
| CC(C)Oc1ccc(C(CC(=O)O)c2ccc(F)cc2)cc1 (configuration not stated) | inactive: 9.94% |
| COc1ccc(C2C(=O)c3ccccc3C2=O)cc1 | inactive: -2.08% |
| Cc1cccc(C)c1NC(=O)C1CCCCN1C (configuration not stated) | inactive: 7.08% |
| CCOC(=O)c1c(C)oc2cc(Br)c(OC(C)C(=O)OCC)cc12 (configuration not stated) | inactive: 2.34% |
| Nc1ccc(S(N)(=O)=O)cc1N | inactive: -5.76% |
| Cc1ncc([N+](=O)[O-])n1CC(O)CCl (configuration not stated) | inactive: -16.1% |
| CN1C(C(=O)Nc2ccccn2)=C(O)c2sccc2S1(=O)=O | inactive: -0.425% |
| CCc1ccc2oc(=O)cc(CN3CCC(C)CC3)c2c1 | inactive: -13.9% |
| CCOC(=O)C1=C(N)Oc2c(oc(CO)cc2=O)C1c1ccc(F)c(F)c1 (configuration not stated) | inactive: -16.3% |
| C[C@]12CC[C@H]3C(=CCc4cc(O)ccc43)[C@@H]1CCC2=O | inactive: -9.44% |
| COc1ccc(CNCCC(c2ccc(F)cc2)c2ccc(OC(C)C)cc2)cc1OC (configuration not stated) | inactive: 5.07% |
| CC(C)COCC1CC2(CC(C)(c3csc(N)n3)OC2=O)C(=O)O1 (configuration not stated) | inactive: -15.4% |
| COc1c(C)cc(C(=O)C2CCCN(Cc3ccc(Oc4ncccn4)cc3)C2)cc1C (configuration not stated) | inactive: -1.97% |
| CCOC(=O)C1C2C=CC3(CN(c4ccc(Cl)c(F)c4)C(=O)C13)O2 (configuration not stated) | inactive: -8.51% |

| SMILES | growth inhibition |
| --- | --- |
| Cn1c(=O)c2[nH]cnc2n(C)c1=O | inactive: -18.8% |
| C#C[C@]1(O)CC[C@H]2[C@@H]3CCc4cc(OC5CCCC5)ccc4[C@H]3CC[C@@]21C | inactive: -16.8% |
| CN(C)CCC=C1c2ccccc2CCc2ccccc21 | inactive: 24.8% |
| Cc1ccnc2c1NC(=O)c1cccnc1N2C1CC1 | inactive: -3.14% |
| COc1cc(C(=O)OCCn2c(=O)c3c(ncn3CCN(C)C)n(C)c2=O)cc(OC)c1OC | inactive: -17.9% |
| COc1ccc(CN2CCC(=O)NC2=O)cc1 | inactive: 3.24% |
| COc1ccc(-c2c[n+](CC(=O)OC3CC(C)CCC3C(C)C)c3n2CCC3)cc1 (configuration not stated) | inactive: -2.28% |
| O=C(COc1ccccc1)N1CCN(c2ccccc2)CC1 | inactive: 4.01% |
| COC(=O)c1cc(OC)c(OC)cc1NC(=O)Nc1ccc(OC)cc1OC | inactive: -0.763% |
| Cc1cc(C)cc(Nc2nc3c([nH]2)c(=O)n(C)c(=O)n3C)c1 | inactive: 1.4% |
| CC(C)(C)C(=O)NCCCNc1ccc([N+](=O)[O-])cc1 | inactive: 4.14% |
| CN1CCCN=C1COC(=O)C(O)(c1ccccc1)C1CCCCC1 (configuration not stated) | inactive: -1.2% |
| C[C@H](NC(=O)NCCc1ccccc1)C(=O)O | inactive: -2.8% |
| O=Cc1ccc(O)c(O)c1 | inactive: 6.98% |
| COc1ccc(-c2cc(=O)oc3c(C)c(O)c(CN(C)C)cc23)cc1 | inactive: 9.69% |
| COC(=O)c1[nH]c2ccccc2c1NC(=O)CN1CCN(C/C=C/c2ccccc2)CC1 | inactive: 2.33% |
| COC(=O)c1cc(-c2c(C)oc3cc(OC)ccc3c2=O)c(C)o1 | inactive: -6.22% |
| O=C1CCCC(=O)C1=Cc1c[nH]c2ccccc12 | inactive: -5.74% |
| CC(=O)O[C@H]1CSC[C@H]1NC(=O)c1ccccc1 | inactive: 12% |
| C=C(C)c1nc2cc(OC)c(OC)cc2c(=O)o1 | inactive: 12.6% |
| CC(C)(S)[C@@H](N)C(=O)O | inactive: 9.78% |
| CC1=C/C(=N\N=C2\NC(=O)C(CC(=O)Nc3ccccc3F)S2)CC(C)(C)C1 (configuration not stated) | inactive: 8.22% |
| COc1ccc(C(=O)Nc2ncc3c(n2)CC(C)CC3=O)cc1 (configuration not stated) | inactive: -12.5% |
| CC(=O)Oc1ccc2c(=O)c(Oc3ccccc3[N+](=O)[O-])coc2c1 | inactive: 0.628% |
| C[C@]12C=CC(=O)C=C1CCC1C3CC[C@](O)(C(=O)CO)[C@@]3(C)CC3OC312 (some centres not stated) | inactive: 0.333% |

Single entries from the list.
In growth inhibition, COc1ccc(CN2CCC(=O)NC2=O)cc1 is entered as inactive: 3.24%
In growth inhibition, Cc1cc(C)cc(Nc2nc3c([nH]2)c(=O)n(C)c(=O)n3C)c1 is entered as inactive: 1.4%
In growth inhibition, Cc1ccnc2c1NC(=O)c1cccnc1N2C1CC1 is entered as inactive: -3.14%
In growth inhibition, CN(C)CCC=C1c2ccccc2CCc2ccccc21 is entered as inactive: 24.8%

Next part:

| SMILES | growth inhibition |
| --- | --- |
| O=C1C=CC(=O)C(C2=C3C(=O)N(CCc4ccccc4)CC(=O)N3CCC2)=C1 | inactive: 0.713% |
| COc1cc(OC)c(C(=O)CCCN2CCCC2)c(OC)c1 | inactive: -1.08% |
| CCN1CCn2c3c(c4cc(Cl)ccc42)CCCC31 (configuration not stated) | inactive: 5.58% |
| Cc1ccc2c(CC(=O)O)coc2c1 | inactive: -1.25% |
| CCOC(=O)NN1C(=O)c2ccccc2NC1c1ccc(OC)c(OC)c1 (configuration not stated) | inactive: -6.91% |
| COc1cc2c(cc1OC)-c1cc(OCc3ccccc3Cl)nc(=O)n1CC2 | inactive: 21.4% |
| COc1ccccc1N1CCN(CC(O)COc2cccc3ccccc23)CC1 (configuration not stated) | inactive: 3.88% |
| CN1CCC(=C2c3ccccc3CC(=O)c3sccc32)CC1 | inactive: -3.51% |
| COc1ccc(NC(=S)N2CCN(CCN3C(=O)c4cccc5cccc(c45)C3=O)CC2)cc1 | inactive: 1.82% |
| OC(CCCN1CCC(O)(c2ccc(Cl)cc2)CC1)c1ccc(F)cc1 (configuration not stated) | inactive: -2.57% |
| Clc1cc(-c2ccc(/C=N/n3cnnc3)o2)ccc1Br | inactive: -1.41% |
| COc1ccc(-c2c(NC(=O)c3ccco3)n(C)c3ccccc3c2=O)cc1 | inactive: 0.407% |
| CC(C)(Sc1cc(C(C)(C)C)c(O)c(C(C)(C)C)c1)Sc1cc(C(C)(C)C)c(O)c(C(C)(C)C)c1 | inactive: -3.01% |
| CSCCC(NC(C)=O)C(=O)Oc1ccc2c3c(c(=O)oc2c1)CCCC3 (configuration not stated) | inactive: 5.23% |
| CCOc1ccc(N2C(=O)CC(NCCNc3ccc([N+](=O)[O-])cn3)C2=O)cc1 (configuration not stated) | inactive: -0.321% |
| Cc1oc(/C=N/NC(=O)CC2(C)OCCO2)cc1Br | inactive: -11.1% |
| CC(=O)O[C@H]1C[C@@]2(C)[C@@H](C[C@@H](O)[C@H]3[C@@]4(C)CC[C@@H](O)[C@@H](C)C4CC[C@@]32C)/C1=C(\CCC=C(C)C)C(=O)O (some centres not stated) | inactive: -0.768% |
| Cn1c(=S)n(C)c2ccccc21 | inactive: 0.566% |
| COc1ccc(C(C)=O)c2c1OCCO2 | inactive: -3.84% |
| C=CCC1(Cl)C(=O)C(Cl)=C(N2CCOCC2)C1(OC)OC (configuration not stated) | inactive: -2.68% |
| CCC(=O)c1ccc(O)cc1 | inactive: 1.29% |
| Cc1cc(Cl)cc2c1NC(=O)[C@]21[C@@H]2C(=O)N(Cc3ccccc3)C(=O)[C@@H]2[C@@H]2CCCN21 | inactive: 6.75% |

Retrieved one by one from above:

| SMILES | growth inhibition |
| --- | --- |
| COCCn1c(SCCOc2ccccc2)nc2ccccc2c1=O | inactive: 3.69% |
| Cc1ccc2[nH]c3c(c2c1)CN(C(=O)CN1CCSCC1)CC3 | inactive: -8.61% |
| Cc1cccc(C)c1NC(=O)C1CCCCN1C (configuration not stated) | inactive: 7.08% |
